Assay results taken from the supplement of paper PMC12578635.
The other results are listed elsewhere or left out. Cut-off read from the data, not from the text of the source: active = 150% or more and inactive = the rest. Most values come without repeats; read them as rough.

System: Staphylococcus aureus JE2-lux inside RAW 264.7 macrophages
Test: intracellular bacterial bioluminescence relative to DMSO vehicle; higher = higher intracellular bacterial metabolic activity
Conditions: 10 µM; treatment time 4 h; gentamicin 50 µg/ml

Intracellular bacterial bioluminescence, inactive:
COc1ccc(OC)c(NC(=O)C(=O)NCc2cccs2)c1 83.6%
CC(C)(C)c1ccc(-c2cc(=O)c3cc(NC(=O)c4cccnc4)ccc3o2)cc1 108%
Cc1ccc(-n2c(N)cc(=O)nc2SCC(=O)Nc2nccs2)cc1 89.8%
Cc1cc(C)nc(SCc2cc(=O)c(OC(=O)c3cc(Cl)ccc3Cl)co2)n1 109%
O=C(O)CCCN1C(=O)C2C3CC(C2C1=O)C1C(c2cccnc2)c2sc(=O)[nH]c2SC31 (stereo not drawn) 100%
Cc1ccc(Nc2nc(C(=O)NCc3ccco3)cc3occc23)cc1 53.5%
CC(=O)c1cccc(NC(=O)NN2CCOCC2)c1 99.1%
O=C(NCC1COCCO1)c1ccc(C(F)(F)F)nc1N1CCN(CCO)CC1 (stereo not drawn) 120%
CCCc1nnc(SCC(=O)Nc2ccccc2C(=O)OC)n1-n1cccc1 73%
CCOc1ccc(-c2csc(/C(C#N)=C\c3ccc(O)c(OCC)c3)n2)cc1 104%
CC(C(=O)Nc1ncc([N+](=O)[O-])s1)N1C(=O)c2ccccc2S1(=O)=O (stereo not drawn) 93%
CC(C)c1ccc(/C=C(\C#N)C(=O)Nc2cccc(Br)c2)cc1 111%
CSc1nc2cc(NC(=S)NC(=O)c3ccccc3)ccc2s1 72.3%
Cn1c2ccccc2n2c(=O)n(CC(=O)N3CCOCC3)nc12 96.7%
O=C(CS(=O)(=O)Cc1ccccc1)Nc1nc2ccc(Br)cc2s1 25.4%
Cc1nn2c(NCc3ccccn3)cc(C(C)(C)C)nc2c1-c1ccc(F)cc1 74.3%
COc1ccccc1NC(=O)CSc1nnc2sc3ccccc3n12 99.8%
COC(=O)c1ccccc1NC(=O)c1cc2cccnc2n(C)c1=O 94.9%
CCOc1ccc(CCNc2nccn(-c3ccc4c(c3)OCO4)c2=O)cc1OCC 64.6%
O=C1CCCN2N=C(SCC(=O)NCc3ccco3)SC2=N1 95.4%
Cc1cc2cc3c(N)c(C(=O)NCc4ccco4)sc3nc2cc1C 90.7%
O=C(CCn1nnc2ccccc21)N/N=C/c1cccc(O)c1 100%
O=C(Cn1cnc2c(cnn2-c2ccc(Cl)cc2)c1=O)N1CCc2ccccc21 93.7%
CCCc1ccc(C(=O)CC2(O)C(=O)Nc3ccc(C)cc32)cc1 (stereo not drawn) 107%
CCCCc1ccc(NC(=O)CSc2nc(=O)n3ccccc3n2)cc1 27%
Cc1[nH]c2c(C(=O)NC(c3ccccc3)c3cccnc3)cccc2c1C (stereo not drawn) 74.7%
CCOc1ccccc1NC(=O)c1c[nH]c(=O)n(-c2ccc(F)cc2)c1=O 82.3%
O=C(Nc1ncc(Cc2ccc(F)cc2)s1)c1ccc2nccnc2c1 139%
Cc1cc2c(cc1NCc1cc3c(C)nn(-c4ccccc4)c3[nH]c1=O)OCCO2 98.8%
O=C(Nc1ccccc1Cl)c1cccnc1-c1ccsc1 101%
O=C(O)CCCN1C(=O)c2cccc([N+](=O)[O-])c2C1=O 110%
COc1ccccc1NS(=O)(=O)c1cc(C)c2[nH]c(=O)cc(C)c2c1 125%
NC(=O)C1(N2CCCCC2)CCN(c2ccc(NS(=O)(=O)c3ccccc3)c(C(=O)O)c2)CC1 102%
COc1cccc2cc(C(=O)Nc3ccc(F)cc3)/c(=N/NS(=O)(=O)c3ccccc3)oc12 73.1%
COc1ccc(C(=O)NCC(c2cccs2)N2CCc3ccccc3C2)cc1 (stereo not drawn) 105%
O=C(Nc1ccc2c(c1)OCCO2)C(=O)Nc1cccc2cccnc12 96.9%
CCCOC(=O)c1sc2nc3c(c(-c4ccco4)c2c1N)CCCC3 111%
CSc1cccc2sc(Nc3cccc(C)c3)nc12 122%
Cc1noc2ncnc(NCCN3CCCCC3C)c12 (stereo not drawn) 116%
O=C1c2ccccc2-c2nn(C(=O)C3CCN(S(=O)(=O)c4cccs4)CC3)c3cccc1c23 112%
CC(=O)Nc1ccc(NC(=O)Cn2c(-c3nnc(C)o3)cc3ccccc32)cc1 123%
O=C(NCCS(=O)(=O)N1CCC2(CC1)OCCO2)c1ccc2c(c1)OCO2 132%
Clc1ccc(-n2ncc3c(Cl)ncnc32)cc1 120%
CCc1cc2ccc(C)c(C)c2nc1SCC(=O)NNC(=O)c1ccco1 71.3%
NC(=O)N/N=C/c1sc(=O)n(Cc2cccc(C(=O)O)c2)c1Cl 108%
O=C1C=C(Nc2ccccc2)C(=O)N1c1ccccc1Cl 125%
COc1ccc(CCNC(=O)Cc2csc3nc(-c4ccc(F)cc4)cn23)cc1OC 79.3%
O=C(Nc1cccc2c1CCCC2)c1cc(-c2ccccn2)[nH]n1 76.6%
CCn1c(SCc2nc(-c3cccc(Cl)c3)no2)nc2cc3c(cc2c1=O)OCO3 104%
COc1ccc(CNC(=O)c2cc(-c3ccccc3F)nc3[nH]nc(-c4cccc(OC)c4)c23)cc1 92.5%
Cc1onc(-c2ccccc2Cl)c1C(=O)Oc1cc(N)n(S(=O)(=O)c2ccc(F)cc2)n1 90.9%
CC(C)c1ccc(Cc2cnc(N3C(=N)SCC3=O)s2)cc1 63.8%
O=C(CSc1nc(=O)n(CCO)c2c1CCCC2)Nc1ccccc1[N+](=O)[O-] 113%
O=C(CN1C(=O)c2ccccc2C1=O)Nc1ccc2c(c1)C(=O)NC2=O 2.55%
CCc1cccc(NC(=O)c2c(-c3ccccc3)nnc3ccccc23)c1 98.5%
CCS(=O)(=O)c1ccc(C(=O)/N=c2/sc3c(C)ccc(OC)c3n2C)cc1 122%
Cc1nn2c(C)c(C(=O)NCc3ccc(F)cc3)cnc2c1-c1ccccc1 119%
O=C(O)CCc1nc(N2CCCCC2)c2c(-c3ccc(F)cc3)noc2n1 99.9%
Cc1nc2ccc(C(=O)NC(c3ccncc3)c3ccccc3C)cc2s1 (stereo not drawn) 118%
O=c1[nH]cncc1-c1nc(-c2ccc(Cl)cc2)no1 76.7%
CCOc1ccc(CNC(=O)CCn2cnc3onc(-c4ccccc4)c3c2=O)cc1 62.6%
Cn1c(SCC(=O)N/N=C/c2ccc(Cl)cc2)nc2ccccc21 83%
O=C(NCCc1ccccc1)c1cccnc1Nc1ccc2c(c1)OCCO2 68.3%
COc1cc(NS(=O)(=O)c2ccc(NC(=O)Nc3ccccc3)cc2)nc(OC)n1 106%
O=C(NCc1ccc2[nH]c3c(c2c1)CCCC3)C(=O)c1c[nH]c2ccccc12 89.3%
COc1ccc(NC(=O)Cn2c(=O)n(-c3ccccc3)c(=O)c3oc4ccccc4c32)cc1OC 116%
Cc1cc(=O)n2nc(-c3ccc(Cl)cc3)nc2n1CC(=O)Nc1ccccc1F 107%
CCOC(=O)c1ccc(Nc2[nH]c(=O)c3ccccc3c2C(=O)c2ccncc2)cc1 113%
NC(=O)CSC1=NS(=O)(=O)c2cc(Cl)ccc2N1 149%
Cc1cc(NC(=O)C2CCN(S(=O)(=O)c3cc(-c4noc(C)n4)sc3C)CC2)c2ccccc2n1 109%
CCCNC(=O)NCC(c1cccnc1)c1c[nH]c2ccccc12 (stereo not drawn) 101%
CCNc1nc(Nc2ccc(Cl)cc2)c2cnn(C)c2n1 63.4%
CCCCC1CCC(C(=O)Nc2cc(C)nn2-c2ncnc3c2cnn3-c2ccc(Cl)cc2)CC1 (stereo not drawn) 147%
CC1CCc2c(sc(NC(=O)C(C)Oc3cccc(Br)c3)c2C#N)C1 (stereo not drawn) 101%
CCCc1cc(C(=O)Nc2ccc3c(c2)CC(C)N3C(C)=O)[nH]n1 (stereo not drawn) 85.4%
O=C(COc1ccc2ccccc2c1)Nc1nnc2n1CCS2 122%
N#CC1=C(N)OC2=C(C(=O)CC(c3ccccc3)C2)C1C1CCCCC1 (stereo not drawn) 74.7%
COc1ccc(Cn2ccc3nc(C)c(C(=O)NCc4ccc(Cl)cc4)cc3c2=O)cc1 104%
Nn1c(SCC(=O)N2CCCCCC2)nncc1=O 116%
CC(=O)Nc1cccc(NC(=O)CSc2nc(=O)n3cc(Cl)ccc3n2)c1 89.2%
CC1CCCCN1S(=O)(=O)c1ccc(C(=O)Nc2ccccc2Oc2ccccc2)cc1 (stereo not drawn) 131%
COc1ccc2cc(CCNC(=O)c3ccc([N+](=O)[O-])cc3)c(=O)[nH]c2c1 67.9%
CCOC(=O)c1c(NC(=O)CSc2ccccc2N)sc(C(C)=O)c1C 84.6%
C=CCNC(=O)c1ccc(COc2ccccc2Cl)o1 65.6%
C=CCn1c(SCC(=O)NCc2cccnc2)nc2sc3c(c2c1=O)CCCC3 51.5%
CC(=O)NC(=O)c1cc2cc(Cl)ccc2o/c1=N\c1cccc2ccccc12 97.8%
CCS(=O)(=O)c1ccccc1C(=O)Nc1ccc(C)cc1C(=O)c1ccccc1 124%
Cc1c(-c2ccccc2)n[nH]c1C(=O)Nc1cccc(C(=O)N2CCCCC2)c1 79.2%
COc1ccc(/C(C)=N/N2CC(=O)Nc3ccccc32)cc1 102%
COc1ccccc1CNC(=O)CSc1nnc2c(n1)[nH]c1ccc(F)cc12 95.6%
CCOCCCNC(=O)c1ncoc1-c1ccc(F)cc1 79.4%
O=C(O)CCCNc1ncnc2c1oc1ccccc12 90.2%
O=C(CSc1ncc(S(=O)(=O)c2ccc(Cl)cc2)c(=O)[nH]1)Nc1ccc2c(c1)OCCO2 82.8%

Compounds listed so far with a nitro group on carbon (four):
Intracellular bacterial bioluminescence, inactive:
CC(C(=O)Nc1ncc([N+](=O)[O-])s1)N1C(=O)c2ccccc2S1(=O)=O (stereo not drawn) 93%
O=C(O)CCCN1C(=O)c2cccc([N+](=O)[O-])c2C1=O 110%
O=C(CSc1nc(=O)n(CCO)c2c1CCCC2)Nc1ccccc1[N+](=O)[O-] 113%
COc1ccc2cc(CCNC(=O)c3ccc([N+](=O)[O-])cc3)c(=O)[nH]c2c1 67.9%
